Values of other authors in paper PMC12754617, “Ruthenium-enhanced curcumin derivatives target tumor growth and cancer-related inflammation in head and neck cancer models” (Frontiers in Oncology, 2025).
pIC50: −log10 of the molar value.

Tested on: A549 cell line
Set-up: method as in PMID 32598409
Conditions: A549 cell line ref 33; cited from earlier work

For `N.N.[Cl][Pt][Cl]` [cisplatin], the pIC50 is given as 4.86.
